Experimental data: article PMC3027643
These are yes or no findings as the source states them, for the method shown. For some assays here: Binding seen in cells or lysates may run through a third protein. Some binding calls cover weakened binding; strength is not graded here. For some assays here: Where a sequence is shown, tags or fusion partners need not be part of it.

Sequences of proteins named here, by UniProt entry; tags and fusion partners are left off. A change or cut given only in a name is not applied to a line headed by its entry. A line that says so, or that is headed by a name, gives the form on record, which may keep a tag or linker. Residues count along the entry.
UniProt Q16595: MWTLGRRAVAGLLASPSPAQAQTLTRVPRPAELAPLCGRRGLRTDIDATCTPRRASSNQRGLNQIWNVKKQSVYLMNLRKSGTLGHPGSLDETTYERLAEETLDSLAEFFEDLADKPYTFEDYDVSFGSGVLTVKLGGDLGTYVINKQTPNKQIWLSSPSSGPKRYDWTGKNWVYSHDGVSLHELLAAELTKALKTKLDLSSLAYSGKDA
recombinant human frataxin with a C-terminal flag epitope (hFXN-Flag): residues 42-210 of Q16595
mature form of human frataxin (aa 81–210) fused to an N-terminal GST (GST-hFXN 81–210): residues 81-210 of Q16595

T1: mISCU-HIS (mouse) (UniProt Q9D7P6)
T1 sequence: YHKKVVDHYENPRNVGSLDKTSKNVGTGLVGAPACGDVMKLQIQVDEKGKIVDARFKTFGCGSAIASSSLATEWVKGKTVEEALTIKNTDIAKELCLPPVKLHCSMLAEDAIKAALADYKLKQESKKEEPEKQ

T2: mISCUD72A-HIS (mouse) (UniProt Q9D7P6)
T2 sequence: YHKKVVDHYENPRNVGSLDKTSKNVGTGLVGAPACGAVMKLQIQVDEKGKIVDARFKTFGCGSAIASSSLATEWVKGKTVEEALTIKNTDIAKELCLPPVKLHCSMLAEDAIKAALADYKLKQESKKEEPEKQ


Columns and labels:
mISCU-HIS (mouse) [1] = biological target: T1, mISCU-HIS (mouse); assay: pull-down; mISCU-HIS co-expressed with mNFS1 and mISD11 in bacteria, purified by cobalt column; western blot
mISCUD72A-HIS (mouse) = biological target: T2, mISCUD72A-HIS (mouse); assay: SEC; mISCU-HIS (wild type or D72A)/mNFS1/mISD11 co-expressed in bacteria, HIS-tag purification and gel filtration; ternary complex in fractions 5 to 7
mISCU-HIS (mouse) [2] = biological target: T1, mISCU-HIS (mouse); assay: as above
[3] = biological target: mature form of human frataxin (aa 81–210) fused to an N-terminal GST (GST-hFXN 81–210) (human) (UniProt Q16595); assay: pull-down; 100 µg GST-fused frataxin with 5–10 mg HeLa mitochondria-enriched extract and glutathione sepharose beads, 3 hours, Tris-HCl 100 mM pH 7.5, 10% glycerol, 100 mM KCl; western blot; iron/ascorbate or EDTA added in some samples without effect; only the target purified
[4] = biological target: recombinant human frataxin with a C-terminal flag epitope (hFXN-Flag) (human) (UniProt Q16595); assay: co-IP; FLAG M2 resin, mitochondria-enriched HeLa extract expressing Flag-tagged frataxin, western blot of the eluate; mitochondria treated or not with 100 µM hydrogen peroxide and 2 mM citrate

binding (mISCU-HIS (mouse) [1]) | binding (mISCUD72A-HIS (mouse)) | binding (mISCU-HIS (mouse) [2]) | Binder | binding [3] | binding [4]
binds | binds | binds | mISD11 (murine ISD11) (protein, UniProt Q8K215 1-91) MAASSRAQVLDLYRAMMRESKHFSAYNYRMYAVRRIRDAFRENKNVKDPVEIQALVNKAKRDLEIIRRQVHIGQLYSTDKLIIENQEKPRT |  | 
 |  |  | mitochondrial aconitase (mACO) (enzyme, UniProt Q99798 28-780) QRAKVAMSHFEPNEYIHYDLLEKNINIVRKRLNRPLTLSEKIVYGHLDDPASQEIERGKSYLRLRPDRVAMQDATAQMAMLQFISSGLSKVAVPSTIHCDHLIEAQVGGEKDLRRAKDINQEVYNFLATAGAKYGVGFWKPGSGIIHQIILENYAYPGVLLIGTDSHTPNGGGLGGICIGVGGADAVDVMAGIPWELKCPKVIGVKLTGSLSGWSSPKDVILKVAGILTVKGGTGAIVEYHGPGVDSISCTGMATICNMGAEIGATTSVFPYNHRMKKYLSKTGREDIANLADEFKDHLVPDPGCHYDQLIEINLSELKPHINGPFTPDLAHPVAEVGKVAEKEGWPLDIRVGLIGSCTNSSYEDMGRSAAVAKQALAHGLKCKSQFTITPGSEQIRATIERDGYAQILRDLGGIVLANACGPCIGQWDRKDIKKGEKNTIVTSYNRNFTGRNDANPETHAFVTSPEIVTALAIAGTLKFNPETDYLTGTDGKKFRLEAPDADELPKGEFDPGQDTYQHPPKDSSGQHVDVSPTSQRLQLLEPFDKWDGKDLEDLQILIKVKGKCTTDHISAAGPWLKFRGHLDNISNNLLIGAINIENGKANSVRNAVTQEFGPVPDTARYYKKHGIRWVVIGDENYGEGSSREHAALEPRHLGGRAIITKSFARIHETNLKKQGLLPLTFADPADYNKIHPVDKLTIQGLKDFTPGKPLKCIIKHPNGTQETILLNHTFNETQIEWFRAGSALNRMKELQQ | no binding | no binding
